This is an account of results in the supplement of paper PMC12819154, “High-throughput peptide-centric local stability assay extends protein–ligand identification to membrane proteins, tissues and bacteria” (Nature Structural & Molecular Biology, 2025).

By UniProt entry, the sequences of proteins in these tests, tags left out. Where a name states a change or a piece, a line headed by the entry shows the natural chain unless it says otherwise.
UniProt Q8VHG0: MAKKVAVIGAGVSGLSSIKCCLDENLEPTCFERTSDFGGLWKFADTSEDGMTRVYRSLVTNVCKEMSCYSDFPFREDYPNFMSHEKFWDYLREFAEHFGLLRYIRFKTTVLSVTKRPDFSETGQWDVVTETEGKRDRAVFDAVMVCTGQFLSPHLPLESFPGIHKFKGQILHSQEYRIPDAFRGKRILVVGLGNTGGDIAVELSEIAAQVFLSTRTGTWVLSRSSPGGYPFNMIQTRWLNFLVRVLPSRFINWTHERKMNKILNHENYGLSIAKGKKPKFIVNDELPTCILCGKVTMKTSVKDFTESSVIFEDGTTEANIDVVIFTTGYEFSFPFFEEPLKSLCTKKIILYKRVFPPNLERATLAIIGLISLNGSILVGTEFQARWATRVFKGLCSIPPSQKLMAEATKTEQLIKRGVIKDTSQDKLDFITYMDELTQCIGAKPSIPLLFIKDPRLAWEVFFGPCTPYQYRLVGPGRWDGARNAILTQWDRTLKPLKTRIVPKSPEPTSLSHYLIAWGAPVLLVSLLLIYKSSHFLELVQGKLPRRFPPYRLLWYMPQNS
UniProt Q99J39: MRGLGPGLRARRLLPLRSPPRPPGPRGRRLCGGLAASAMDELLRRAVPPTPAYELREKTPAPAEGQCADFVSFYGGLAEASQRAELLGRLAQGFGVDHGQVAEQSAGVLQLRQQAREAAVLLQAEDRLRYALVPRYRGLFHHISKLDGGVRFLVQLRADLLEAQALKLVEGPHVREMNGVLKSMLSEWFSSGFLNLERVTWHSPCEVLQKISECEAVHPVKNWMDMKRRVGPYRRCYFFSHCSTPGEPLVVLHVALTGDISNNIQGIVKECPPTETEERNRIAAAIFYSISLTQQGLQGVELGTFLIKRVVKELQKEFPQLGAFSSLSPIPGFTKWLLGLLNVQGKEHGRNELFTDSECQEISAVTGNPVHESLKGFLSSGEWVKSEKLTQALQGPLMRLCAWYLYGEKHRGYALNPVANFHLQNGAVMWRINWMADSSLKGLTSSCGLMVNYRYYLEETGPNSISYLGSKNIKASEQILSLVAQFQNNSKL
UniProt Q91ZX7: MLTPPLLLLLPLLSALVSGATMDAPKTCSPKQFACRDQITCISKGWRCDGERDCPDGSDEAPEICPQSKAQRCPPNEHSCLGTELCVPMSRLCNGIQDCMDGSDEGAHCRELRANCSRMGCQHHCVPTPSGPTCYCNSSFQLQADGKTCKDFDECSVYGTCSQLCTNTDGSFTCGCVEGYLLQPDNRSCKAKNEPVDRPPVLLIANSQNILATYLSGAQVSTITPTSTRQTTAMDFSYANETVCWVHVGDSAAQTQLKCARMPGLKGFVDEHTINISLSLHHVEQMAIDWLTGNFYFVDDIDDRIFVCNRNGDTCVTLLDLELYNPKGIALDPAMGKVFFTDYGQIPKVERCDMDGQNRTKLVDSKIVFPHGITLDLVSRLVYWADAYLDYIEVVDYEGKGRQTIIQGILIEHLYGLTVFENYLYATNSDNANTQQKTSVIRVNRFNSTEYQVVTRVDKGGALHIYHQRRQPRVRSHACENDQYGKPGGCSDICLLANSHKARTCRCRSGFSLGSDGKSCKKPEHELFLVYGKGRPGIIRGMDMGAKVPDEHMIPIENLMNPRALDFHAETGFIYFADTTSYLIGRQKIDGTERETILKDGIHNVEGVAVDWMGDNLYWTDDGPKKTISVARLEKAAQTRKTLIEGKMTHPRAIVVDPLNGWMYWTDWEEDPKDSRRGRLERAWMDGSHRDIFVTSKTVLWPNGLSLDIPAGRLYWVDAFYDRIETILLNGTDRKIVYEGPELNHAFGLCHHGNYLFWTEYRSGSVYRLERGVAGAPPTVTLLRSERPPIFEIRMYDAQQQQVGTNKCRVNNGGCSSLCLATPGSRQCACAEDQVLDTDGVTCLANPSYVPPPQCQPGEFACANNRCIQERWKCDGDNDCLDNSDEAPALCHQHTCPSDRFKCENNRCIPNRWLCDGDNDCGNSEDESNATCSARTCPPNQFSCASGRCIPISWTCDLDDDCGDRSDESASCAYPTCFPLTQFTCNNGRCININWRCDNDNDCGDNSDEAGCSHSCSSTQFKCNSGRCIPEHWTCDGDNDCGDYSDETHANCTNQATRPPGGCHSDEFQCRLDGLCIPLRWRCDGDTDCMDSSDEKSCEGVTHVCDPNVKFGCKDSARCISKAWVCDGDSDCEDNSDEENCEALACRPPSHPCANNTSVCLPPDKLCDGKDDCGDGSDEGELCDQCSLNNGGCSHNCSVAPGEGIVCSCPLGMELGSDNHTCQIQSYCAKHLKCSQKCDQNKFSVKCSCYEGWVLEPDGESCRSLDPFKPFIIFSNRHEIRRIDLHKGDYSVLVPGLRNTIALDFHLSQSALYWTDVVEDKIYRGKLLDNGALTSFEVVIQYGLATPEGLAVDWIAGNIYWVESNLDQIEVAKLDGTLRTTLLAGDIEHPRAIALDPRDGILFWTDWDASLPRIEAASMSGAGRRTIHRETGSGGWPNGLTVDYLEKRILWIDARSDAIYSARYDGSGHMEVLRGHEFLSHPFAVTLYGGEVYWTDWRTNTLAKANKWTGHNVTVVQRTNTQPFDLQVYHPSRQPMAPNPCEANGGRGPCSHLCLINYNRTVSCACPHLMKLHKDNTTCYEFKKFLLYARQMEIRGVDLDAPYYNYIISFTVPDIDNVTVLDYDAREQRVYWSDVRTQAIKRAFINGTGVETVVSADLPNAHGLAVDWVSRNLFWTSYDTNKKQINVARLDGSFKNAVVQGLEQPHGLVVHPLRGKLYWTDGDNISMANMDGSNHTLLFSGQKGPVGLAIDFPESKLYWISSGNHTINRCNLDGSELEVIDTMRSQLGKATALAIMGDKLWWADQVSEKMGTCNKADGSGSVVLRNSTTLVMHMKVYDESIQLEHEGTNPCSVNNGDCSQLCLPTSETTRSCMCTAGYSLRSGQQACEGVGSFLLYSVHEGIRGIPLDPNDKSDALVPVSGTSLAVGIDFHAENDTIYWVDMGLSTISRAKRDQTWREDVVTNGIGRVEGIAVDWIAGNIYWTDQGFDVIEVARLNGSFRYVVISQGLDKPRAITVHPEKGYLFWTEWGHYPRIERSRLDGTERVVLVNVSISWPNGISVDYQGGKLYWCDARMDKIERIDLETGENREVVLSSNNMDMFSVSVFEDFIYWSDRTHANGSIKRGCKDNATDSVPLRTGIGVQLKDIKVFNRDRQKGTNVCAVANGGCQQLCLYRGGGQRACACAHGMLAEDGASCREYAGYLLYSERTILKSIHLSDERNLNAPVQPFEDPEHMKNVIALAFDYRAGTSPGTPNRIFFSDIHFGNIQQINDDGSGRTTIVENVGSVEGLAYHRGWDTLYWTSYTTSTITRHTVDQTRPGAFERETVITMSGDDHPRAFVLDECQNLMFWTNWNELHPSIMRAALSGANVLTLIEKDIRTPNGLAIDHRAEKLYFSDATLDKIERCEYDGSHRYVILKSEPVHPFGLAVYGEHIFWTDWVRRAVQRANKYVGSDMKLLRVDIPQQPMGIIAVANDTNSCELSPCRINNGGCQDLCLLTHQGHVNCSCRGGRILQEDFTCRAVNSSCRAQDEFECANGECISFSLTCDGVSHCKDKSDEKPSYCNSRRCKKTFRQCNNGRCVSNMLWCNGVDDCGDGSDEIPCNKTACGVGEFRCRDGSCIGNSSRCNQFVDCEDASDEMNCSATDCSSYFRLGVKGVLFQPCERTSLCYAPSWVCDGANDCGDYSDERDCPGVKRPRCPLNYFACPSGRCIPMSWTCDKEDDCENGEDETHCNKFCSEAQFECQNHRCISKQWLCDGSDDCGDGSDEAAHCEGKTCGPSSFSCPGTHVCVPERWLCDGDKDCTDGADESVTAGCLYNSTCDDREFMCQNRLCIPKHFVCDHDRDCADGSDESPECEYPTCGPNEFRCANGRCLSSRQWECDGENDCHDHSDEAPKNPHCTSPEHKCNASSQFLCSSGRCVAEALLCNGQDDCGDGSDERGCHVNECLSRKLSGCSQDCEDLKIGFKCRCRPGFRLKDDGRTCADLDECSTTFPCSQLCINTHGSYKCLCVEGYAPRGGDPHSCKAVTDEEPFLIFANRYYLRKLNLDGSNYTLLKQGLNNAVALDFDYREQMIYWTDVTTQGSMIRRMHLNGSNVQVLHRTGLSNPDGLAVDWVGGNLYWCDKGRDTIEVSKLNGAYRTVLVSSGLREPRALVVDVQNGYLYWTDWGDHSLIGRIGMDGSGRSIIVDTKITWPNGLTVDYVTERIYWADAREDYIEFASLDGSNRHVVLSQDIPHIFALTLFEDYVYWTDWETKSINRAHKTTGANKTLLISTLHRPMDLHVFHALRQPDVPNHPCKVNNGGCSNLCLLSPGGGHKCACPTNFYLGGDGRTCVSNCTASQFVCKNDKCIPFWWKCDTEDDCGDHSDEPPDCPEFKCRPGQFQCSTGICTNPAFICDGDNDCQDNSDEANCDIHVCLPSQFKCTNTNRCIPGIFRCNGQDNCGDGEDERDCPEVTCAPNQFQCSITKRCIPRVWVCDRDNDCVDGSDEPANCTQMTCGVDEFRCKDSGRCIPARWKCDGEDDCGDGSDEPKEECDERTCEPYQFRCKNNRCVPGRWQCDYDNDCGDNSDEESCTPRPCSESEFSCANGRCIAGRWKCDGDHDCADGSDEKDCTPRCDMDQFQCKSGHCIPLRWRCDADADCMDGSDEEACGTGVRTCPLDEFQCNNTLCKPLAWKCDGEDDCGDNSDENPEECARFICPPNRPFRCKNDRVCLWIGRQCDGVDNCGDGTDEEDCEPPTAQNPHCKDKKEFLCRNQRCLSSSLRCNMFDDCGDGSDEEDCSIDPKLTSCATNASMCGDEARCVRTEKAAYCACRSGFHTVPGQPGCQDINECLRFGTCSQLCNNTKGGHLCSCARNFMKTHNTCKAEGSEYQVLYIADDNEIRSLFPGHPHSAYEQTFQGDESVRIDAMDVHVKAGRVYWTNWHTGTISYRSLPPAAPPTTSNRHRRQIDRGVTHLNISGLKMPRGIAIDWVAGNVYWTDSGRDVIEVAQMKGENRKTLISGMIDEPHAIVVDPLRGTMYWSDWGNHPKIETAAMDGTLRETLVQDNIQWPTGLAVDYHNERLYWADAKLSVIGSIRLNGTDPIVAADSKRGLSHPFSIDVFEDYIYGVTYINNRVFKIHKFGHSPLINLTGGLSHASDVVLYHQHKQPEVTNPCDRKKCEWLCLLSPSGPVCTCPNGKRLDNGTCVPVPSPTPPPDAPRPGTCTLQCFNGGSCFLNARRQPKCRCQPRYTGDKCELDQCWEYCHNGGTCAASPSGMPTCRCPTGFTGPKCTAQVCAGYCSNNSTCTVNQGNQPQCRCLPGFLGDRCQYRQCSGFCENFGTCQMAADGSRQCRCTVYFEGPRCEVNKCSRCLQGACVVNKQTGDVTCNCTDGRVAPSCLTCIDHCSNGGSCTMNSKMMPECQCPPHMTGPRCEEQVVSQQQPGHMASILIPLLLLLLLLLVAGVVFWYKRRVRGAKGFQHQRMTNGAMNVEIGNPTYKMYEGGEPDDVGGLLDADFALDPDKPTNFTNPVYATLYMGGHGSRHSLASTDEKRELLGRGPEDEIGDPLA
UniProt Q91YN5: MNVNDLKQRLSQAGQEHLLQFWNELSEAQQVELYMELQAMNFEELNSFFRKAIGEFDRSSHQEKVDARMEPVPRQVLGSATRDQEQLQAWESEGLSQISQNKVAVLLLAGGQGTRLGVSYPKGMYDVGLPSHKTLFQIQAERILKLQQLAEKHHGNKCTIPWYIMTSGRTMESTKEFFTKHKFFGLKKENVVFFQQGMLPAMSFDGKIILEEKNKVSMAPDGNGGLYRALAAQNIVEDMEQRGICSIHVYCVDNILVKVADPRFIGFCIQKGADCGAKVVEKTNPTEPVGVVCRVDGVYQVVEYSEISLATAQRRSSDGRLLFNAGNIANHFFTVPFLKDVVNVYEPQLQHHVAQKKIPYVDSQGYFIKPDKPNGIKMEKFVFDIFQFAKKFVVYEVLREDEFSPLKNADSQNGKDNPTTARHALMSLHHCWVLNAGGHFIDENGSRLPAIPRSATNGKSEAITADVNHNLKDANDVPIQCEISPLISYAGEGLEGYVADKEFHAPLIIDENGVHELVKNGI
UniProt Q91WM3: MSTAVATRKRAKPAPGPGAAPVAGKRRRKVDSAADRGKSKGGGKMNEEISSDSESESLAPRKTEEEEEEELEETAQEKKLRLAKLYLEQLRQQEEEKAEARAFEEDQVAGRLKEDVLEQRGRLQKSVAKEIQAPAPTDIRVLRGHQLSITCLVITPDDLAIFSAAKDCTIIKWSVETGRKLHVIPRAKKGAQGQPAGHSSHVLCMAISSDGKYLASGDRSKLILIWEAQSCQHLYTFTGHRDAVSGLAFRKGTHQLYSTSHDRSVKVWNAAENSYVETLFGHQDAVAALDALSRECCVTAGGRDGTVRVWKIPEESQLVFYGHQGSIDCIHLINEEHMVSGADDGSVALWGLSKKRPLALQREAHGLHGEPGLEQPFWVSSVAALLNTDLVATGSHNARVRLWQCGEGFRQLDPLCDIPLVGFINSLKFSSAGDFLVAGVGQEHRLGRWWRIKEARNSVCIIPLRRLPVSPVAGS

This is one part of the list. Most entries show no effect beyond the scatter of the controls.

Compound in the assay: CN[C@@H]1C[C@H]2O[C@@](C)([C@@H]1OC)n1c3ccccc3c3c4c(c5c6ccccc6n2c5c31)C(=O)NC4 [staurosporine]
Kind of assay: log2 fold change of pooled soluble protein (PISA), ligand vs vehicle (log2 ratio); higher = more thermally stabilized. Particulars: ligand concentration: 20 uM; assay format: PISA pool 52.9/55.5/58.6 C.
As for UniProt Q8VCZ9, the “log2 fold change of pooled soluble protein” value (“log2 fold change” for short) was -0.1.

UniProt Q91W43: the “log2 fold change” value was determined as 0.0257.

Consider UniProt Q91WP0, for which the “log2 fold change” value is 0.194. With UniProt Q91WD5 the figure was 0.00549. As for UniProt Q8VHG0, the figure is 0.267; as for UniProt Q99J39, 0.0866; as for UniProt Q91VE6, -0.123. As for UniProt Q91WB4, the figure is -0.292. In the case of UniProt Q8VDD5, the “log2 fold change” value is -0.02. With UniProt Q91ZX7 the figure was -0.049; with UniProt Q91V01, -0.0783. With UniProt Q91YN5, the “log2 fold change” value is -0.00187. With UniProt Q99020 the figure was 0.174. With UniProt Q8VDL4, the “log2 fold change” value is -0.0973. As for UniProt Q91VH2, the figure is -0.0754. With UniProt Q8VI36 the figure was -0.0626; with UniProt Q91WM6, 0.032; with UniProt Q921U8, 0.0938. Consider UniProt Q91Z53, for which the “log2 fold change” value came to 0.0482. With UniProt Q91W53 the figure was 0.135; with UniProt Q925F2, 0.00767.

As to UniProt Q91VT4, the “log2 fold change” value is -0.083. Consider UniProt Q922J3, for which the “log2 fold change” value is -0.0117. As for UniProt Q91WG8, the figure is -0.0635; as for UniProt Q8VED9, 0.0715; as for UniProt Q91Z40, -0.0447. With UniProt Q8VDP2 the figure was -0.117. With UniProt Q91VX2 the figure was -0.0176; with UniProt Q924L1, -0.0114; with UniProt Q91WN1, -0.021. For UniProt Q8VDG3, the “log2 fold change” value was 0.0627. With UniProt Q91YR9 the figure was 0.0147; with UniProt Q91X34, 0.109. As for UniProt Q923D2, the figure is 0.00887; as for UniProt Q91ZV0, 0.0248. As for UniProt Q8VEB6, the figure is -0.297; as for UniProt Q91WM3, 0.232.
